# Assay results reported in the supplement of paper PMC8728848.
# The list shows a part of the results.
# B1: PGP3 (Chlamydia trachomatis), P0CE18 (protein)
# chain: MGNSGFYLYNTQNCVFADNIKVGQMTEPLKDQQIILGTTSTPVAAKMTASDGISLTVSNNPSTNASITIGLDAEKAYQLILEKLGDQILGGIADTIVDSTVQDILDKITTDPSLGLLKAFNNFPITNKIQCNGLFTPRNIETLLGGTEIGKFTVTPKSSGSMFLVSADIIASRMEGGVVLALVREGDSKPYAISYGYSSGVPNLCSLRTRIINTGLTPTTYSLRVGGLESGVVWVNALSNGNDILGITNTSNVSFLEVIPQTNA
# How the values were obtained:
# Test in all cases: glycan array binding signal (z-score within array); higher = stronger binding
# Settings in all cases: glycan notation: IUPAC condensed, linker removed
# [1] = biological target: Neu5Ac(a2-3)Gal(b1-3)GalNAc6S
# Outline: (§1)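 Glycan array data were curated from 3228 arrays in the Consortium for Functional Glycomics database and kept only where the protein sequence was available. Glycan names were converted to IUPAC-condensed notation, and columns mapping to the same glycan were averaged. The binding signal is a within-array Z-score, averaged across arrays of the same protein sequence at different concentrations or buffers and across linkers. Negative Z-scores can be read as non-binding.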
# [2] = biological target: Neu5Ac(a2-3)Gal(b1-3)GlcNAc
# Outline: as §1
# [3] = biological target: Neu5Ac(a2-3)Gal(b1-3)GlcNAc(b1-3)Gal(b1-3)GlcNAc
# Outline: as §1
# [4] = biological target: Neu5Ac(a2-3)Gal(b1-3)GlcNAc(b1-3)Gal(b1-4)GlcNAc
# Outline: as §1
# [5] = biological target: Neu5Ac(a2-3)Gal(b1-3)GlcNAc(b1-3)GalNAc
# Outline: as §1
# [6] = biological target: Neu5Ac(a2-3)Gal(b1-3)GlcNAc6S
# Outline: as §1
# [7] = biological target: Neu5Ac(a2-3)Gal(b1-3)[Fuc(a1-4)]GlcNAc
# Outline: as §1
# [8] = biological target: Neu5Ac(a2-3)Gal(b1-3)[Fuc(a1-4)]GlcNAc(b1-3)Gal(b1-3)[Fuc(a1-4)]GlcNAc
# Outline: as §1
# [9] = biological target: Neu5Ac(a2-3)Gal(b1-3)[Fuc(a1-4)]GlcNAc(b1-3)Gal(b1-4)[Fuc(a1-3)]GlcNAc
# Outline: as §1
# [10] = biological target: Neu5Ac(a2-3)Gal(b1-3)[Neu5Ac(a2-3)Gal(b1-4)]GlcNAc
# Outline: as §1
# [11] = biological target: Neu5Ac(a2-3)Gal(b1-3)[Neu5Ac(a2-6)]GalNAc
# Outline: as §1
# Neu5Ac(a2-3)Gal(b1-4)Glc = biological target: Neu5Ac(a2-3)Gal(b1-4)Glc
# Outline: as §1
# [12] = biological target: Neu5Ac(a2-3)Gal(b1-4)GlcNAc
# Outline: as §1
# [13] = biological target: Neu5Ac(a2-3)Gal(b1-4)GlcNAc(b1-2)Man(a1-3)[GlcNAc(b1-2)Man(b1-4)GlcNAc(b1-2)Man(a1-6)]Man(b1-4)GlcNAc(b1-4)GlcNAc
# Outline: as §1
# [14] = biological target: Neu5Ac(a2-3)Gal(b1-4)GlcNAc(b1-2)Man(a1-3)[Neu5Ac(a2-6)Gal(b1-4)GlcNAc(b1-2)Man(a1-6)]Man(b1-4)GlcNAc(b1-4)GlcNAc
# Outline: as §1
# [15] = biological target: Neu5Ac(a2-3)Gal(b1-4)GlcNAc(b1-3)Gal
# Outline: as §1
# [16] = biological target: Neu5Ac(a2-3)Gal(b1-4)GlcNAc(b1-3)Gal(b1-3)GlcNAc
# Outline: as §1
# [17] = biological target: Neu5Ac(a2-3)Gal(b1-4)GlcNAc(b1-3)Gal(b1-4)GlcNAc
# Outline: as §1
# [18] = biological target: Neu5Ac(a2-3)Gal(b1-4)GlcNAc(b1-3)Gal(b1-4)GlcNAc(b1-3)Gal(b1-4)GlcNAc
# Outline: as §1
# [19] = biological target: Neu5Ac(a2-3)Gal(b1-4)GlcNAc(b1-3)Gal(b1-4)[Fuc(a1-3)]GlcNAc
# Outline: as §1
# [20] = biological target: Neu5Ac(a2-3)Gal(b1-4)GlcNAc(b1-3)GalNAc
# Outline: as §1
# [21] = biological target: Neu5Ac(a2-3)Gal(b1-4)GlcNAc(b1-6)[Gal(b1-3)]GalNAc
# Outline: as §1
# [22] = biological target: Neu5Ac(a2-3)Gal(b1-4)GlcNAc(b1-6)[Neu5Ac(a2-3)Gal(b1-3)]GalNAc
# Outline: as §1
# [23] = biological target: Neu5Ac(a2-3)Gal(b1-4)GlcNAc6S
# Outline: as §1
# [24] = biological target: Neu5Ac(a2-3)Gal(b1-4)[Fuc(a1-3)]GlcNAc
# Outline: as §1
# [25] = biological target: Neu5Ac(a2-3)Gal(b1-4)[Fuc(a1-3)]GlcNAc(b1-3)Gal
# Outline: as §1
# [26] = biological target: Neu5Ac(a2-3)Gal(b1-4)[Fuc(a1-3)]GlcNAc(b1-3)Gal(b1-4)GlcNAc
# Outline: as §1
# [27] = biological target: Neu5Ac(a2-3)Gal(b1-4)[Fuc(a1-3)]GlcNAc(b1-3)Gal(b1-4)[Fuc(a1-3)]GlcNAc(b1-3)Gal(b1-4)[Fuc(a1-3)]GlcNAc
# Outline: as §1
# [28] = biological target: Neu5Ac(a2-3)Gal(b1-4)[Fuc(a1-3)]GlcNAc(b1-3)GalNAc
# Outline: as §1
# [29] = biological target: Neu5Ac(a2-3)Gal(b1-4)[Fuc(a1-3)]GlcNAc(b1-6)[Gal(b1-3)]GalNAc
# Outline: as §1
# [30] = biological target: Neu5Ac(a2-3)Gal(b1-4)[Fuc(a1-3)]GlcNAc6S
# Outline: as §1
# [31] = biological target: Neu5Ac(a2-3)Gal6S(b1-4)GlcNAc
# Outline: as §1
# [32] = biological target: Neu5Ac(a2-3)Gal6S(b1-4)[Fuc(a1-3)]GlcNAc
# Outline: as §1
# Neu5Ac(a2-3)GalNAc = biological target: Neu5Ac(a2-3)GalNAc
# Outline: as §1
# [33] = biological target: Neu5Ac(a2-3)GalNAc(b1-4)GlcNAc
# Outline: as §1
# [34] = biological target: Neu5Ac(a2-3)[GalNAc(b1-4)]Gal(b1-4)Glc
# Outline: as §1
# [35] = biological target: Neu5Ac(a2-3)[GalNAc(b1-4)]Gal(b1-4)GlcNAc
# Outline: as §1
binder,measurement,setting,value
B1,glycan array binding signal (z-score),[1],-1.42
same,glycan array binding signal (z-score),[2],0.288
same,glycan array binding signal (z-score),[3],-0.785
same,glycan array binding signal (z-score),[4],0.956
same,glycan array binding signal (z-score),[5],0.649
same,glycan array binding signal (z-score),[6],-1.31
same,glycan array binding signal (z-score),[7],-0.97
same,glycan array binding signal (z-score),[8],0.109
same,glycan array binding signal (z-score),[9],-0.346
same,glycan array binding signal (z-score),[10],0.901
same,glycan array binding signal (z-score),[11],0.039
same,glycan array binding signal (z-score),Neu5Ac(a2-3)Gal(b1-4)Glc,-1.46
same,glycan array binding signal (z-score),[12],0.238
same,glycan array binding signal (z-score),[13],-0.621
same,glycan array binding signal (z-score),[14],-0.457
same,glycan array binding signal (z-score),[15],0.551
same,glycan array binding signal (z-score),[16],-0.5
same,glycan array binding signal (z-score),[17],-0.444
same,glycan array binding signal (z-score),[18],-0.859
same,glycan array binding signal (z-score),[19],-0.486
same,glycan array binding signal (z-score),[20],-1.59
same,glycan array binding signal (z-score),[21],0.041
same,glycan array binding signal (z-score),[22],-0.535
same,glycan array binding signal (z-score),[23],-1.53
same,glycan array binding signal (z-score),[24],-0.763
same,glycan array binding signal (z-score),[25],0.164
same,glycan array binding signal (z-score),[26],0.128
same,glycan array binding signal (z-score),[27],1.86
same,glycan array binding signal (z-score),[28],2.05
same,glycan array binding signal (z-score),[29],-1.3
same,glycan array binding signal (z-score),[30],-0.45
same,glycan array binding signal (z-score),[31],2.5
same,glycan array binding signal (z-score),[32],0.195
same,glycan array binding signal (z-score),Neu5Ac(a2-3)GalNAc,1.01
same,glycan array binding signal (z-score),[33],-0.907
same,glycan array binding signal (z-score),[34],-0.991
same,glycan array binding signal (z-score),[35],0.973

# 2 entries from above, reformatted:
binder	measurement	setting	value
B1	glycan array binding signal (z-score)	[9]	-0.346
same	glycan array binding signal (z-score)	Neu5Ac(a2-3)GalNAc	1.01
